Article PMC6499331, “Transcriptional gene silencing requires dedicated interaction between HP1 protein Chp2 and chromatin remodeler Mit1” (Genes & Development, 2019)
These are yes or no findings as the source states them, for the method shown. Binding can be weak; no strength is given. For part of these data: Binding seen in cells or lysates may run through a third protein.

Protein sequences, listed by entry. Tags and fused reporters are not part of them. Lines headed by an entry give the natural chain unless they say otherwise; changes in a name come on top.
UniProt Q9P793: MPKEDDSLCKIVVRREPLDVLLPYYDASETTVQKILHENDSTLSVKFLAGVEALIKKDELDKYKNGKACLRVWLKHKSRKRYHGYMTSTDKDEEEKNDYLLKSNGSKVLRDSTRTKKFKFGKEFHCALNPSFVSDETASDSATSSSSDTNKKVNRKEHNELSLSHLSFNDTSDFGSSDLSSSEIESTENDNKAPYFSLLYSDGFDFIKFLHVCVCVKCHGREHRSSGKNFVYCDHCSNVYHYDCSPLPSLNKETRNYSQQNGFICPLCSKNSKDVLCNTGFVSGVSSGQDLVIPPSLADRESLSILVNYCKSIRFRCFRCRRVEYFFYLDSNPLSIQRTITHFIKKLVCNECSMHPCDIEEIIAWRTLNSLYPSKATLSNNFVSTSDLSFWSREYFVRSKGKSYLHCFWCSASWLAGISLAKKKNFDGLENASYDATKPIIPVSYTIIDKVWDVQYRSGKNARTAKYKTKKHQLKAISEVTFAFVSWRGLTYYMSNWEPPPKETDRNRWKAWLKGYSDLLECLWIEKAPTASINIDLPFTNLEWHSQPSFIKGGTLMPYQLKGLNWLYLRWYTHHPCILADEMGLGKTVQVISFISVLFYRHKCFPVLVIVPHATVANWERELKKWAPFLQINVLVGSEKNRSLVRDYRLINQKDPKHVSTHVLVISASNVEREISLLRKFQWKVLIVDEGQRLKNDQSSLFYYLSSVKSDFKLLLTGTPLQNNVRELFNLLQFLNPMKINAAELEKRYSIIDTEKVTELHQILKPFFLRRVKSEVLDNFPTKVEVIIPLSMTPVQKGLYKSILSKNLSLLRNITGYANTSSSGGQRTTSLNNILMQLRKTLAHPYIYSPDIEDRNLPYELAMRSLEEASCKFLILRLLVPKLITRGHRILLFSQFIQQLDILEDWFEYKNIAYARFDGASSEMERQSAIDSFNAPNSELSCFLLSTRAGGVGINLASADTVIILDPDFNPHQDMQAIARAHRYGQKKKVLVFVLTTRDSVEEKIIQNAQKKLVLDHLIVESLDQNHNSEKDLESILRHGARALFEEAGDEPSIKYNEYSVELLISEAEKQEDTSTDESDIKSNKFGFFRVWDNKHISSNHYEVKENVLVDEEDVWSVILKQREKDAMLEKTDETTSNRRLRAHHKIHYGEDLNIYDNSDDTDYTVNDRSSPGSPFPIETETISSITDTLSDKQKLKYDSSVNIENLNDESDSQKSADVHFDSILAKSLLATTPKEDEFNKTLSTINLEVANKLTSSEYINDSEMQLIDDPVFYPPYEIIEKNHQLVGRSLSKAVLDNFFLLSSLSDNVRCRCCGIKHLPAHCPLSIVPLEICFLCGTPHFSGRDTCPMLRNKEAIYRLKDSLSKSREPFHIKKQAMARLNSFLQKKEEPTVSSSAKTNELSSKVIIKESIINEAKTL
UniProt O42934: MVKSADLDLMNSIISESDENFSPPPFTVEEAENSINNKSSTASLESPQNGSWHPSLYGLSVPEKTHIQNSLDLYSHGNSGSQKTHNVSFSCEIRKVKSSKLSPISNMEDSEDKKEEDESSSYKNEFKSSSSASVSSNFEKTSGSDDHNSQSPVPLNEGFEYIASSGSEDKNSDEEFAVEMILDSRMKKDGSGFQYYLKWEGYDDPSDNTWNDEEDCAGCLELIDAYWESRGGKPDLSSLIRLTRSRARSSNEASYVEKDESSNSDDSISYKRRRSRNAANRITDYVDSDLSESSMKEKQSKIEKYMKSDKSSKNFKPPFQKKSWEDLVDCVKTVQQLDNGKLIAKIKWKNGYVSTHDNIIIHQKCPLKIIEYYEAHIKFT

Key:
[1] = biological target: Mit1 N terminus (OneStrep-tagged, insect cells) (S. pombe) (UniProt Q9P793); assay: pull-down; proteins coexpressed in Sf9 cells; OneStrep-tagged Mit1 constructs captured from the lysate on StrepTactin beads, 1 h at 4°C; 400 mM KCl, 100 mM Tris pH 7.5, 2 mM Mg-acetate, 5 mM β-mercaptoethanol, 0.1% NP40; eluted with desthiobiotin; Clr1MID included to stabilize the Mit1 C terminus
[2] = biological target: Chp2CSD (Gal4 binding domain fusion) (S. pombe) (UniProt O42934); assay: two-hybrid; Chp2 constructs fused to the Gal4 binding domain (pGBKT7, Y2Hgold), Mit1 constructs in pGADT7 (Y187); growth at 30°C on SD/-Trp/-Leu/-His and SD/-Trp/-Leu/-His/-Ade (QDO)
[3] = biological target: Chp2 full length protein (Gal4 binding domain fusion) (S. pombe) (UniProt O42934); assay: as above

“Chp2 (T7-tagged, coexpressed in insect cells) (from UniProt O42934 1-380)” was tested. Which binding [1] did it give?
The binding was “binds”.

With “Mit1 N terminus (Gal4 activation domain fusion) (from UniProt Q9P793) (domain or fragment)” as the substance, how does the binding [2] read?
Its binding is “binds”.

What about the binding [3] of the same substance?
Its binding is “binds”.
